{"source": "PubChem BioAssay (Tox21)", "note": "Several values for one entry are separate records, joined by “and”; a condition that tells them apart may be missing. Equal values may be shown once. Inconclusive means that the source gave no clear call. Such entries were picked first, then a sample of the others. Where the call is inconclusive, the potency comes from a doubtful curve fit. A structure can be active in one record and inactive in another. Activity calls are given as the source filed them. The call rests on the fitted dose curve. On the % scale 0 is the no-effect control and ±100 the full control effect; potency means the concentration at half of the fitted maximal effect."}
{"experiment": "Nuclear factor erythroid 2-related factor 2/antioxidant responsive element (Nrf2/ARE) small molecule agonists: luciferase reporter gene qHTS assay in human keratinocytes (AID 1919969); further: nearly all actives have a fitted effect of over 35% in size", "conditions": "KeratinoSens HaCaT ARE-luciferase, luminescence, 24 h; series mostly up to 92.4 µM; activity, positive = activation: at the top concentration", "excerpt": "National Center for Advancing Translational Sciences [NCATS]\nDivision of Preclinical Innovation [DPI]\nU.S. Environmental Protection Agency [EPA]\nNational Institutes of Environmental Health Sciences [NIEHS]\nNational Toxicology Program [NTP]\nU.S. Food and Drug Administration [FDA]\nOxidative stress has been implicated in the pathogenesis of a variety of diseases ranging from cancer to neurodegeneration. The antioxidant response element (ARE) signaling pathway plays an important role in the amelioration of oxidative stress. The KeratinoSens (Givaudan, Switzerland) is an in vitro test method which quantifies luciferase induction as a measure of activation of Keap1-Nrf2-antioxidationt/electrophile response element (ARE) dependant pathway in HaCaT human keratinocytes stably transfected with a selectable plasmid. The KeratinoSens assay is a cell-based assay with a reporter cell line to detect potential skin sensitizers by their ability to induce the Nrf2/ARE-response. The activation of the report gene under culture conditions can be detected by ONE-Glo Luciferase Assay System (Promega, Madison, WI). This cell line has been used to screen the Tox21 10K compound library to identify agonists that induce oxidative stress. The cytotoxicity of the Tox21 compound library against the KS-ARE cell line was tested in parallel by measuring the cell viability using CellTiter- Fluor assay system (Promega, Madison, WI) in the same wells.\nHaCaT derived cell line KeratinoSens were dispensed at 1,500 cells/5uL/well in 1536-well white wall/solid bottom plates using a Multidrop Combi (ThermoFisher Scientific, Waltham, MA) dispenser. After the assay plates were incubated at 37 C/5% CO2 for 5 h, 23 nL of compounds dissolved in DMSO, positive controls or DMSO only was transferred to the assay plate by a pintool workstation (Kalypsys, San Diego, CA). The plates were incubated at 37 C/5% CO2 for 23 h, followed by addition of 1uL/well of CellTiter-Fluor reagent into the assay plates using a Flying Reagent Dispenser (Aurora Discovery, San Diego, CA) for cell viability readout that measures cytotoxicity. After 1 h incubation at 37 C/5% CO2 the fluorescence intensity was measured using a ViewLux (PerkinElmer, Shelton, CT) plate reader. Then 4uL/well of One-Glo were added using a Flying Reagent Dispenser. After the plates were incubated at room temperature for 30 min, the luminescence intensity in the assay plates was measured using ViewLux plate reader."}
{"smiles": "OCCCBr", "Potency": "inconclusive: 68.6 µM [activator, single point]"}
{"smiles": "C[C@]12Cc3cn[nH]c3C[C@@H]1CC[C@@H]1[C@@H]2CC[C@@]2(C)[C@H]1CC[C@]2(C)O", "Potency": "inconclusive: 33.5 µM [activator, single point]"}
{"smiles": "BrCCBr", "Potency": "inconclusive: 69.4 µM [activator, partial curve, poor fit]"}
{"smiles": "CC(C)(OOC(C)(C)c1ccccc1)c1ccccc1", "Potency": "inconclusive: 21.4 µM [activator, partial curve] and active: 21.7 µM"}
{"smiles": "CCOP(=O)(OCC)Oc1ccc([N+](=O)[O-])cc1", "Potency": "inactive"}
{"smiles": "CCC(CC)Nc1c([N+](=O)[O-])cc(C)c(C)c1[N+](=O)[O-]", "Potency": "active: 17.5 µM and active: 48.5 µM"}
{"smiles": "O=C(O)CC[N+](=O)[O-]", "Potency": "inconclusive: 70.8 µM [activator, single point]"}
{"smiles": "CCCCCCI", "activity, positive = activation": "inactive: -1.12%"}
{"smiles": "CCOP(=S)(OCC)SCSC(C)(C)C", "Potency": "inconclusive: 61.6 µM [activator, partial curve, poor fit]"}
{"smiles": "[O]=[Cr](=[O])([OH])[O][Cr](=[O])(=[O])[OH]", "Potency": "inconclusive: 8.71 µM [activator, partial curve]"}
{"smiles": "O=Cc1ccccc1", "activity, positive = activation": "inactive: 8.53%"}
{"smiles": "O=S(=O)(Cl)Cl", "activity, positive = activation": "inactive: 0.376%"}
{"smiles": "O=C1C2CC=CCC2C(=O)N1SC(Cl)(Cl)Cl", "note": "(stereo not given)", "Potency": "active: 54.3 µM and active: 7.57 µM"}
{"smiles": "CNC(=O)Oc1c(C(C)(C)C)cc(C)cc1C(C)(C)C", "Potency": "active: 61.1 µM"}
{"smiles": "CCOP(=S)(OCC)Oc1cnc2ccccc2n1", "Potency": "inconclusive: 34.4 µM [activator, partial curve]"}
{"smiles": "Cc1cccc(N=Nc2ccc(N(C)C)cc2)c1", "Potency": "active: 247 nM and active: 1.72 µM"}
{"smiles": "CCOP(=S)(OCC)Oc1ncn(-c2ccccc2)n1", "Potency": "inconclusive: 61.1 µM [activator, single point]"}
{"smiles": "C=CCSSCC=C", "activity, positive = activation": "inactive: 4.11%"}
{"smiles": "COCCOCCO", "Potency": "inconclusive: 68.6 µM [activator]"}
{"smiles": "CC(C)(c1cc(Cl)c(O)c(Cl)c1)c1cc(Cl)c(O)c(Cl)c1", "Potency": "inconclusive: 27.3 µM [activator, single point]"}
{"smiles": "CC(C)(CCl)C(=O)Cl", "Potency": "inconclusive: 68.5 µM [activator, single point]"}
{"smiles": "Cc1cc(Cl)ccc1OC(C)C(=O)O", "note": "(stereo not given)", "Potency": "inconclusive: 26.8 µM [activator, partial curve, poor fit]"}
{"smiles": "CC(C)=C[C@@H]1[C@@H](C(=O)OCc2coc(Cc3ccccc3)c2)C1(C)C", "Potency": "inconclusive: 33.5 µM [activator, single point]"}
{"smiles": "Nc1ccccc1C(=O)OC/C=C/c1ccccc1", "activity, positive = activation": "inactive: 3.43%"}
{"smiles": "Cl/C=C/Cl", "Potency": "inconclusive: 27.5 µM [activator, single point]"}
{"smiles": "N#Cc1nn(-c2c(Cl)cc(C(F)(F)F)cc2Cl)c(N)c1S(=O)C(F)(F)F", "note": "(stereo not given)", "Potency": "inconclusive: 33.5 µM [activator, single point]"}
{"smiles": "CC(C)=CC1C(C(=O)OCN2C(=O)C3=C(CCCC3)C2=O)C1(C)C", "note": "(stereo not given)", "Potency": "active: 48.6 µM and active: 26.6 µM"}
{"smiles": "CC[C@H](N)c1ccccc1", "activity, positive = activation": "inactive: 1.76%"}
{"smiles": "C=C(C)C(=O)OCC1CO1", "note": "(stereo not given)", "Potency": "inconclusive: 67.8 µM [activator, single point]"}
{"smiles": "C=CCC1=C(C)C(OC(=O)C2C(C=C(C)C)C2(C)C)CC1=O", "note": "(stereo not given)", "Potency": "active: 23 µM"}
{"smiles": "CC(C)CC(C)(c1ccc(O)cc1)c1ccc(O)cc1", "Potency": "inconclusive: 24.3 µM [activator, single point]"}
{"smiles": "Cc1cc(-c2ccc(N)c(C)c2)ccc1N", "Potency": "inconclusive: 24.3 µM [activator, single point]"}
{"smiles": "COP(=S)(OC)Oc1cc(Cl)c(Cl)cc1Cl", "Potency": "inconclusive: 33.5 µM [activator, single point]"}
{"smiles": "CC[N+]1(C)CCCC1", "Potency": "active: 70.3 µM"}
{"smiles": "N#CC(Cl)Cl", "Potency": "active: 59.5 µM"}
{"smiles": "N#C/C=C/C#N", "Potency": "inconclusive: 71.8 µM [activator]"}
{"smiles": "O=C(NC(=O)c1c(F)cccc1F)Nc1cc(Cl)c(OC(F)(F)C(F)F)c(Cl)c1", "Potency": "inconclusive: 61.1 µM [activator, single point]"}
{"smiles": "CCCC[n+]1ccccc1", "Potency": "inconclusive: 54.7 µM [activator, partial curve]"}
{"smiles": "BrCC(Br)C1CCC(Br)C(Br)C1", "note": "(stereo not given)", "Potency": "inconclusive: 68.2 µM [activator, partial curve]"}
